# Data: US5175146A (Vical, Inc., priority 1990, dated 1992)
# Experiment: Boc solid-phase peptide synthesis; Boc-Pro-MBHA; DCC/HOBt
# Settings: whole synthesis, analytical HPLC; amino acid analysis, scale 1 mmol
substance,measurement,value
[(SerThr)2 -Lys-7]-cCT(7-32),final HPLC purity,better than 95%
